Experimental data: article PMC12859064
Results are given in words; binding and its absence hold for the method and conditions named. Binding seen in cells or lysates may run through a third protein. Some results given as binding are weak or reduced against the parent protein; the word gives no strength. For part of these data: Sequences can lack the tags named with a protein. Each block holds one molecule with its values, some of them ahead of it.

The chains behind the UniProt entries cited, without tags or fusion partners.
UniProt O15169: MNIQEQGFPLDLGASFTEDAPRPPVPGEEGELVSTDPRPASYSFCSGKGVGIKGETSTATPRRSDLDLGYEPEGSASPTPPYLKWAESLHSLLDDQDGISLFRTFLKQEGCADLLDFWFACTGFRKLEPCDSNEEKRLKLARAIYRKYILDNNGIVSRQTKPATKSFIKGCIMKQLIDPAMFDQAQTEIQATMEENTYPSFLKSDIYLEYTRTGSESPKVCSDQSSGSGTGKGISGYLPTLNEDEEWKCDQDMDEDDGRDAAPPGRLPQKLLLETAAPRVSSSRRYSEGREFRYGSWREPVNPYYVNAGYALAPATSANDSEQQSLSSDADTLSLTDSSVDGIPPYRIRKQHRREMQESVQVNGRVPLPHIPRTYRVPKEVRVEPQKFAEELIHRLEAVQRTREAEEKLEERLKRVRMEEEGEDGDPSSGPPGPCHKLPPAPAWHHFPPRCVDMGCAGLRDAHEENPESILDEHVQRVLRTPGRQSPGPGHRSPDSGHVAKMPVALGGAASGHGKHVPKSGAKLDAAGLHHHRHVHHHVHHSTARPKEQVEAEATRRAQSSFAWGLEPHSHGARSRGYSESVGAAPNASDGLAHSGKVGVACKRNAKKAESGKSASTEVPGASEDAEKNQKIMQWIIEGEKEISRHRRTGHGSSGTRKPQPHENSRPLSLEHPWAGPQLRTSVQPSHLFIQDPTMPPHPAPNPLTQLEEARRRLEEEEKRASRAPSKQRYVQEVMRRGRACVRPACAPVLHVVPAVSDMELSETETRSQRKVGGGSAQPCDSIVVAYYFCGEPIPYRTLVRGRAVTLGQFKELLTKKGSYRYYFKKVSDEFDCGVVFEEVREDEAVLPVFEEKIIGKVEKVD
UniProt P35222: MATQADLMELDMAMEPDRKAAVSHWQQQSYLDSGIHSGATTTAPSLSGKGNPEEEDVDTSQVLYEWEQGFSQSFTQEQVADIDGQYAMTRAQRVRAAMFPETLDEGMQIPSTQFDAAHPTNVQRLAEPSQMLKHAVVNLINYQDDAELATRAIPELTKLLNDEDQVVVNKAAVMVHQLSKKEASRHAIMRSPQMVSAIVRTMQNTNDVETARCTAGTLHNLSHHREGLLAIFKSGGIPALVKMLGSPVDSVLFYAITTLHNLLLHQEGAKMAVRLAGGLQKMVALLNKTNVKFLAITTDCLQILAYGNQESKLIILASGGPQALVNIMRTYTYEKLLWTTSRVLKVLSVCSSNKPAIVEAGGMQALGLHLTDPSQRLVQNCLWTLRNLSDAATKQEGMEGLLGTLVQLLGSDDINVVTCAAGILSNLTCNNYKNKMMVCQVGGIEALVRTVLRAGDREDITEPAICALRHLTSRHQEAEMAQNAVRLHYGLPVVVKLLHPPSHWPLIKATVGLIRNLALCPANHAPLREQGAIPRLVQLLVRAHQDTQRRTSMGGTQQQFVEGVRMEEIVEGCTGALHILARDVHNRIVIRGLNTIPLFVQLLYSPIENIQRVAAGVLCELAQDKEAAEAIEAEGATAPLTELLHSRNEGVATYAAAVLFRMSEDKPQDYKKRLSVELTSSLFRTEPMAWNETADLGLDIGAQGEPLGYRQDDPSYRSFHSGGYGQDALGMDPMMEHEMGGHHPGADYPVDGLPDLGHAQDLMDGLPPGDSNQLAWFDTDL

Assays:
[1] = target: endogenous Axin1 (human (endogenous in HCT116)) (UniProt O15169); experiment: co-IP; HCT116 lysates, control IgG or anti-Axin1 or anti-β-TrCP antibody; in Fig. 3g, h cells with siCtrl or siTRIM15 for 72 h and MG132 (20 μM) for 6 h before lysis
[2] = target: endogenous Axin1 (human (endogenous in HCT116)) (UniProt O15169); experiment: co-IP; Flag-TRIM15 and endogenous Axin1 in HCT116 cells; Western blot
[3] = target: endogenous Axin1 (human (endogenous in HCT116)) (UniProt O15169); experiment: co-IP; HCT116 lysates, control IgG or anti-Axin1 or anti-β-TrCP antibody; in Fig. 3g, h cells with siCtrl or siTRIM15 for 72 h and MG132 (20 μM) for 6 h before lysis; remark: listed apart in the source

binding [1]: binds
Molecule: endogenous phosphorylated β-catenin (from UniProt P35222 1-781)

binding [2]: binds
B1: Flag-TRIM15 in HCT116 cells (protein, UniProt Q9C019 1-465)
chain: MPATPSLKVVHELPACTLCAGPLEDAVTIPCGHTFCRLCLPALSQMGAQSSGKILLCPLCQEEEQAETPMAPVPLGPLGETYCEEHGEKIYFFCENDAEFLCVFCREGPTHQAHTVGFLDEAIQPYRDRLRSRLEALSTERDEIEDVKCQEDQKLQVLLTQIESKKHQVETAFERLQQELEQQRCLLLARLRELEQQIWKERDEYITKVSEEVTRLGAQVKELEEKCQQPASELLQDVRVNQSRCEMKTFVSPEAISPDLVKKIRDFHRKILTLPEMMRMFSENLAHHLEIDSGVITLDPQTASRSLVLSEDRKSVRYTRQKKSLPDSPLRFDGLPAVLGFPGFSSGRHRWQVDLQLGDGGGCTVGVAGEGVRRKGEMGLSAEDGVWAVIISHQQCWASTSPGTDLPLSEIPRGVRVALDYEAGQVTLHNAQTQEPIFTFTASFSGKVFPFFAVWKKGSCLTLKG

binding [3]: binds
B2: endogenous TRIM15 (protein, UniProt Q9C019 1-465)
chain: B1 chain
